Among the data in paper PMC9546770 are binding values, retold here.

Experiment [1] concerns the target T1, Myc-IGSF9 (UniProt Q05BQ1).
T1 sequence: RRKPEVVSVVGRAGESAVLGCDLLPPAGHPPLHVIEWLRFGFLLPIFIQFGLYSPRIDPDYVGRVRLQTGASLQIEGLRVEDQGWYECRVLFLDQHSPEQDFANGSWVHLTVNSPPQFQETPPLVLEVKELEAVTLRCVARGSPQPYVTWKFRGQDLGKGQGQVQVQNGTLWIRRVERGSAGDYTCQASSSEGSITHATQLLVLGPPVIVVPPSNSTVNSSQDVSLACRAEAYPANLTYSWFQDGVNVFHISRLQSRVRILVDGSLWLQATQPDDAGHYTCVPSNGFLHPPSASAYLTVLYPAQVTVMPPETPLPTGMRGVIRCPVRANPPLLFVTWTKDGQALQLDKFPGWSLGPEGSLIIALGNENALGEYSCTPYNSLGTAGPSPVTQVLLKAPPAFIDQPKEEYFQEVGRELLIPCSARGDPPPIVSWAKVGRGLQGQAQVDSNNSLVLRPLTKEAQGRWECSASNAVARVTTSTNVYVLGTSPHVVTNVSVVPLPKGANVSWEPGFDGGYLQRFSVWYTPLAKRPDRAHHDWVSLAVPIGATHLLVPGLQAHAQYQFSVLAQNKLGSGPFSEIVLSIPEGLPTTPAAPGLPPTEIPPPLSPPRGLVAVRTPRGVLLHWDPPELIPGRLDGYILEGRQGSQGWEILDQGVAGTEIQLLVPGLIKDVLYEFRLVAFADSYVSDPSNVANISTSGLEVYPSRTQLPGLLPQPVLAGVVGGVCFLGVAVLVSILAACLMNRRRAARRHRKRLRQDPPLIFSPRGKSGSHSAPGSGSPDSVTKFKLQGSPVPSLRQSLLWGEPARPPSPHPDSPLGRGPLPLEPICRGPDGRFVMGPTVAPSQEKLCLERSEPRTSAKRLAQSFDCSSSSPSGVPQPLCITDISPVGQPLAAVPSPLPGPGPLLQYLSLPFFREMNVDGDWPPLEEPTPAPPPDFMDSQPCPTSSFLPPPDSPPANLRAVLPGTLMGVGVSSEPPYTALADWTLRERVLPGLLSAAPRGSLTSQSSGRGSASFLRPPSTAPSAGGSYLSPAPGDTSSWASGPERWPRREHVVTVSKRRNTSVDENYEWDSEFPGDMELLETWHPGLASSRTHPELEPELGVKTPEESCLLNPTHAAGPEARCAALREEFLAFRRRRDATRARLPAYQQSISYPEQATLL
In words: co-IP; HEK-293T cells transfected with tagged plasmids; lysates immunoprecipitated with anti-myc mouse monoclonal antibody or normal IgG, protein A/G beads, overnight at 4 °C; western blot. (Immunoblotting shows a protein as a band on a membrane.)

The target in experiment [2] is T2, GST-FAK (1-355) fusion protein (UniProt Q05397).
T2 sequence: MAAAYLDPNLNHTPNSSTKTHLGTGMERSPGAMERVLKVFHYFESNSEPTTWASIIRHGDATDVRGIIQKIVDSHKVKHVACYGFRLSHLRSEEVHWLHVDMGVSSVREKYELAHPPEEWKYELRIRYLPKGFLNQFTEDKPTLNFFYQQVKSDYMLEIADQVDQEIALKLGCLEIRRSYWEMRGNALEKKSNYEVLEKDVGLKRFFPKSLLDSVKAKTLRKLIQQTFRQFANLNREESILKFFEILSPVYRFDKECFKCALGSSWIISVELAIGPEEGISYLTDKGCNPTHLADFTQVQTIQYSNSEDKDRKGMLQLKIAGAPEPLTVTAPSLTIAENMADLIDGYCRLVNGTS
In words: pull-down; GST or GST-FAK (1-355) on Glutathione-Sepharose 4B beads incubated with in vitro translated IGSF9; washed, eluted, western blot; only the target purified.

Results are given in words; binding and its absence hold for the method and conditions named. Binding seen in cells or lysates may run through a third protein. Some results given as binding are weak or reduced against the parent protein; the word gives no strength. Sequences can lack the tags named with a protein.

B1: HA-tagged FAK (1-355 aa) (domain or fragment, UniProt Q05397 1-355)
chain: MAAAYLDPNLNHTPNSSTKTHLGTGMERSPGAMERVLKVFHYFESNSEPTTWASIIRHGDATDVRGIIQKIVDSHKVKHVACYGFRLSHLRSEEVHWLHVDMGVSSVREKYELAHPPEEWKYELRIRYLPKGFLNQFTEDKPTLNFFYQQVKSDYMLEIADQVDQEIALKLGCLEIRRSYWEMRGNALEKKSNYEVLEKDVGLKRFFPKSLLDSVKAKTLRKLIQQTFRQFANLNREESILKFFEILSPVYRFDKECFKCALGSSWIISVELAIGPEEGISYLTDKGCNPTHLADFTQVQTIQYSNSEDKDRKGMLQLKIAGAPEPLTVTAPSLTIAENMADLIDGYCRLVNGTS
Take B1: the binding entry in experiment [1] is “binds”.

B2: In vitro-translated IGSF9 (1-493 aa) (domain or fragment, UniProt Q05BQ1 1-493)
chain: MIWCLRLTVLSLIISQGADGRRKPEVVSVVGRAGESAVLGCDLLPPAGHPPLHVIEWLRFGFLLPIFIQFGLYSPRIDPDYVGRVRLQTGASLQIEGLRVEDQGWYECRVLFLDQHSPEQDFANGSWVHLTVNSPPQFQETPPLVLEVKELEAVTLRCVARGSPQPYVTWKFRGQDLGKGQGQVQVQNGTLWIRRVERGSAGDYTCQASSSEGSITHATQLLVLGPPVIVVPPSNSTVNSSQDVSLACRAEAYPANLTYSWFQDGVNVFHISRLQSRVRILVDGSLWLQATQPDDAGHYTCVPSNGFLHPPSASAYLTVLYPAQVTVMPPETPLPTGMRGVIRCPVRANPPLLFVTWTKDGQALQLDKFPGWSLGPEGSLIIALGNENALGEYSCTPYNSLGTAGPSPVTQVLLKAPPAFIDQPKEEYFQEVGRELLIPCSARGDPPPIVSWAKVGRGLQGQAQVDSNNSLVLRPLTKEAQGRWECSASNAVA
For B2, the binding result in experiment [2] was “binds”.
